Source: the supplement of paper PMC10849652
The list shows a part of the results.

Protein sequences, listed by entry. Tags and fused reporters are not part of them. Lines headed by an entry give the natural chain unless they say otherwise; changes in a name come on top.
UniProt Q9UGM3: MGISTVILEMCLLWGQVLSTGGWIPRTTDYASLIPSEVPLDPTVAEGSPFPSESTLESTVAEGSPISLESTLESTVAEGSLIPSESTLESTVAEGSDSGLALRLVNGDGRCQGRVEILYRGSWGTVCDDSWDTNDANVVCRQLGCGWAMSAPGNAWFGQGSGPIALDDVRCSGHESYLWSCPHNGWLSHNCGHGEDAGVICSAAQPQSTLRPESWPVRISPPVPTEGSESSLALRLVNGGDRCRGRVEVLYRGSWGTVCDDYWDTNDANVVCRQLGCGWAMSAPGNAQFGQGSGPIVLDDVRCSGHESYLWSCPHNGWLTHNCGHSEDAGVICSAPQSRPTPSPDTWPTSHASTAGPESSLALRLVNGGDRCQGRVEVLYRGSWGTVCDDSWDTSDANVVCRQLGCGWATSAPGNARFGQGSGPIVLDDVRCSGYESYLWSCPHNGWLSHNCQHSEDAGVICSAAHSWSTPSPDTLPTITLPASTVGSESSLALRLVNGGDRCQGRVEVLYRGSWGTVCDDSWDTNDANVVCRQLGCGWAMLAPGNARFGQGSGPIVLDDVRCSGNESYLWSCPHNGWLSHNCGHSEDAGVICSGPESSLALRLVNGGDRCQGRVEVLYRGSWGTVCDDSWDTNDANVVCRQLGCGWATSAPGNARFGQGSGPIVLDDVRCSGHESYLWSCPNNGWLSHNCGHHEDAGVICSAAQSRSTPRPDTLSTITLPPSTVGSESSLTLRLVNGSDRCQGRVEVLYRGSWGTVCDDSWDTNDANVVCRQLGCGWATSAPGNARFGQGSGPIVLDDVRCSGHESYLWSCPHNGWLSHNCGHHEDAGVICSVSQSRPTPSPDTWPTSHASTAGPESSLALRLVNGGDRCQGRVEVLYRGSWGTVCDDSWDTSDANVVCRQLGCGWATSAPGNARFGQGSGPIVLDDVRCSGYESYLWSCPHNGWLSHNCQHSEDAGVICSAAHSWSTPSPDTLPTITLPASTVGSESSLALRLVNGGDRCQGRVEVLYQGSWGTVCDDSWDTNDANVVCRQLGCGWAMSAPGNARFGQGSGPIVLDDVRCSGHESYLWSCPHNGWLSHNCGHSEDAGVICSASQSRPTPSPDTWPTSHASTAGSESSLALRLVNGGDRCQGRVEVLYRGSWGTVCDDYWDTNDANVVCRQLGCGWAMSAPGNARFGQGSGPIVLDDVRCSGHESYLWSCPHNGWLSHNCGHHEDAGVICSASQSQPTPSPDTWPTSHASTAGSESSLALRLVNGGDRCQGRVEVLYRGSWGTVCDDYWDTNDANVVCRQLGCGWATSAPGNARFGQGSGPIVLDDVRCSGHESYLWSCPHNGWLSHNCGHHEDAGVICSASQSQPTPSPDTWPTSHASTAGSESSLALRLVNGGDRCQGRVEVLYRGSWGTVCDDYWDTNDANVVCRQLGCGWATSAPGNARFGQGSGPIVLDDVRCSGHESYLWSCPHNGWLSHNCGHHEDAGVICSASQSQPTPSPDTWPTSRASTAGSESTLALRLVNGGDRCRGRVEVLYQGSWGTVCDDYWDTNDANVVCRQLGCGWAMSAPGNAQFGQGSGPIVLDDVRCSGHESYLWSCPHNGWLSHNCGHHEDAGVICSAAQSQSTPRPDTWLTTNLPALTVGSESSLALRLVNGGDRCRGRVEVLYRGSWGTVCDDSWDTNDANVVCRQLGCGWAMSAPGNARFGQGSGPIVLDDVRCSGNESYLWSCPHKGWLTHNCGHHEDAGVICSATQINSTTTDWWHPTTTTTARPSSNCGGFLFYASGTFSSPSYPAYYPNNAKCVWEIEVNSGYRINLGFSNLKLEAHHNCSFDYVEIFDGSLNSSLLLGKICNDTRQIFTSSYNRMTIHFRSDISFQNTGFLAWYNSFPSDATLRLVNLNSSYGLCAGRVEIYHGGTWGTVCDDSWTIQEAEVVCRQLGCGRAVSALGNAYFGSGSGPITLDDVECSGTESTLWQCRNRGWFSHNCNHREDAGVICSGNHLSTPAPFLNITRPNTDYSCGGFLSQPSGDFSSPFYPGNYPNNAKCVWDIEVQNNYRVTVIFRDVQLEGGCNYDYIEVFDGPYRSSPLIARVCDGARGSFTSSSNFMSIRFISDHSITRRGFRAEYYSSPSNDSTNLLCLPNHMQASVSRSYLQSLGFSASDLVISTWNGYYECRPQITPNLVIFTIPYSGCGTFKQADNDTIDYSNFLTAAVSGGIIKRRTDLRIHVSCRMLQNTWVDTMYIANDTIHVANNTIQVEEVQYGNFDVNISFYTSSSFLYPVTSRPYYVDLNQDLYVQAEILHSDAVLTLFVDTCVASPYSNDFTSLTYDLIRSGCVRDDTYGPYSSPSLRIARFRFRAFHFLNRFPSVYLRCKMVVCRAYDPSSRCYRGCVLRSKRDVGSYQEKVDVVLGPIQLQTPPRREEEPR
UniProt Q96HY7: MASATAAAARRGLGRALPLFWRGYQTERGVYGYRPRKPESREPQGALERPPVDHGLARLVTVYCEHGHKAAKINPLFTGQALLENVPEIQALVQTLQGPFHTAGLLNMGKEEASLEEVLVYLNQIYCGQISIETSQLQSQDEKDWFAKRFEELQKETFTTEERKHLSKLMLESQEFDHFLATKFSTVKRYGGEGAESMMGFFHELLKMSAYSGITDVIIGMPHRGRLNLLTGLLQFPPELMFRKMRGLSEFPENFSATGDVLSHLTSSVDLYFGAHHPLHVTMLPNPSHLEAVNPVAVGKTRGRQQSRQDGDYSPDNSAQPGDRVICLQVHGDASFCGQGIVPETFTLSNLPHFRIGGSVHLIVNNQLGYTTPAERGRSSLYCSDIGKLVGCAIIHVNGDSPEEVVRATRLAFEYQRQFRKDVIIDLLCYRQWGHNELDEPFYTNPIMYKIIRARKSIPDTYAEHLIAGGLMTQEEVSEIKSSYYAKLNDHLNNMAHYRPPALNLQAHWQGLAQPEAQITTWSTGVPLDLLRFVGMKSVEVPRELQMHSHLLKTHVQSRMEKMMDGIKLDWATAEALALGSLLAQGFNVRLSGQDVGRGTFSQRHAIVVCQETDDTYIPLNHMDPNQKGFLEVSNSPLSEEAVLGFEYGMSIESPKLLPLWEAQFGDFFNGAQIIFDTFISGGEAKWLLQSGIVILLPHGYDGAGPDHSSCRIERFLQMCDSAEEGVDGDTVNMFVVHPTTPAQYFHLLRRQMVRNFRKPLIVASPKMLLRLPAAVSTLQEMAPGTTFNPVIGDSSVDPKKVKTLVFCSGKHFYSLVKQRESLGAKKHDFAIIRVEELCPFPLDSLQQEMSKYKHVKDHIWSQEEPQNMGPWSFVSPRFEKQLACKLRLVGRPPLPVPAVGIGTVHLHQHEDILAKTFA
UniProt O15121: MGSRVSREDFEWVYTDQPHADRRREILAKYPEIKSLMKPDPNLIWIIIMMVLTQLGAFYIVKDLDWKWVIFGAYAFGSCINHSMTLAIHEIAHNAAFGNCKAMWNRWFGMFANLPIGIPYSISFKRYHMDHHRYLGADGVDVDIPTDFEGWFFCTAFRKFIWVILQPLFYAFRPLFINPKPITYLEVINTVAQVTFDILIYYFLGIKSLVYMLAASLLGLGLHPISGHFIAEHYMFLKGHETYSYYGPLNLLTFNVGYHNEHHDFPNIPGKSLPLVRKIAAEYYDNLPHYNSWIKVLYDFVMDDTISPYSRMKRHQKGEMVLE
UniProt O75398: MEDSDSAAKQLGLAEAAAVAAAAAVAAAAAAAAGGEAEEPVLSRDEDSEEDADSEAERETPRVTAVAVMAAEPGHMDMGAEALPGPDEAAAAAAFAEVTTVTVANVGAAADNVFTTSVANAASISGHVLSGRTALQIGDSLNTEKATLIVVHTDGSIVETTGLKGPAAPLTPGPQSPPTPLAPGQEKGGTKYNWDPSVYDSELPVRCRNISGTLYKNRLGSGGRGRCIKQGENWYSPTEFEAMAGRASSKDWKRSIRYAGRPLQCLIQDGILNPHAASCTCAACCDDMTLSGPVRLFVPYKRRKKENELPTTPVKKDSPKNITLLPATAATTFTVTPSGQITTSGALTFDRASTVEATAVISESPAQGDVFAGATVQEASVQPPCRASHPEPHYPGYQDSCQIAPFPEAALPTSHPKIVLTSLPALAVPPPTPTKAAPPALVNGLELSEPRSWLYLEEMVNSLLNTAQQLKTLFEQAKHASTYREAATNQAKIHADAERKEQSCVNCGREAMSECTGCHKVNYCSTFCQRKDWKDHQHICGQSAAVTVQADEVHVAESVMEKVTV
UniProt Q6E0U4: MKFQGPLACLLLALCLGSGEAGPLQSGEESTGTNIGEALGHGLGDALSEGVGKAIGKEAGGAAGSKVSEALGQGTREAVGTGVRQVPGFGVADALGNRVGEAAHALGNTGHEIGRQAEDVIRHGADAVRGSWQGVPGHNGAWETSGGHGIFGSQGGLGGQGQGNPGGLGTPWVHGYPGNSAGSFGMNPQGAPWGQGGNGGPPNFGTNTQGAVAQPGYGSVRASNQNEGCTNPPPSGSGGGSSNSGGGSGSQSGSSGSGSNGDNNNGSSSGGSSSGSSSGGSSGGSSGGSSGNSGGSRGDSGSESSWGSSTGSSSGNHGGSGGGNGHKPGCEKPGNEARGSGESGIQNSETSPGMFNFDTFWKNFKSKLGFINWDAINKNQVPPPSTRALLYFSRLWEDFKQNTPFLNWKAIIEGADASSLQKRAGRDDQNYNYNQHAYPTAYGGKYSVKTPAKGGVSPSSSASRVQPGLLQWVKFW
UniProt Q9UHL0: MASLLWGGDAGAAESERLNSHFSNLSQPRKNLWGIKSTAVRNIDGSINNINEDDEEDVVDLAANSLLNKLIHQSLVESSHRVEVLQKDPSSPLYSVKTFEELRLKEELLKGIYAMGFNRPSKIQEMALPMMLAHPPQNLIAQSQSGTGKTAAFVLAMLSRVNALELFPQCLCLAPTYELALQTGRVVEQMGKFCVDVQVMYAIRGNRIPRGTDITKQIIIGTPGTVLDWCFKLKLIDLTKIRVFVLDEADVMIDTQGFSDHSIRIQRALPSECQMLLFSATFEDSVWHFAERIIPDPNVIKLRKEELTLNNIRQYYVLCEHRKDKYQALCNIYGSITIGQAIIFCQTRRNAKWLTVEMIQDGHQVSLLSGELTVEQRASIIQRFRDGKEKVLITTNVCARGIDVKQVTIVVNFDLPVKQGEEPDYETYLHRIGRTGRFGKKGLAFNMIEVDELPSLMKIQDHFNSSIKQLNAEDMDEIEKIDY
UniProt Q6ZN54: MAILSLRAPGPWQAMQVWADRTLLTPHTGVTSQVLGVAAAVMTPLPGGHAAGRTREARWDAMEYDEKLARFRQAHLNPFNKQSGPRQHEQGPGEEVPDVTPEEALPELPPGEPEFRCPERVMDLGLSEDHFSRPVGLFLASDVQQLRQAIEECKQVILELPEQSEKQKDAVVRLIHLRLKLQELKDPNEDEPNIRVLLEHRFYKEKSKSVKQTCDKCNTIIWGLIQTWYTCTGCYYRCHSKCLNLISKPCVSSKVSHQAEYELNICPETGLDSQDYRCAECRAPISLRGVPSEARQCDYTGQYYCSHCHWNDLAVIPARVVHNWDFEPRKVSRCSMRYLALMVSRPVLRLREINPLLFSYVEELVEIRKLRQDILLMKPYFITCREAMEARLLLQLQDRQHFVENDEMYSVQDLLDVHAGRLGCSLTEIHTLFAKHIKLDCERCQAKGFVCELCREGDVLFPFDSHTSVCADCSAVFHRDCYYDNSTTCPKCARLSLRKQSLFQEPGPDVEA
UniProt Q68CQ4: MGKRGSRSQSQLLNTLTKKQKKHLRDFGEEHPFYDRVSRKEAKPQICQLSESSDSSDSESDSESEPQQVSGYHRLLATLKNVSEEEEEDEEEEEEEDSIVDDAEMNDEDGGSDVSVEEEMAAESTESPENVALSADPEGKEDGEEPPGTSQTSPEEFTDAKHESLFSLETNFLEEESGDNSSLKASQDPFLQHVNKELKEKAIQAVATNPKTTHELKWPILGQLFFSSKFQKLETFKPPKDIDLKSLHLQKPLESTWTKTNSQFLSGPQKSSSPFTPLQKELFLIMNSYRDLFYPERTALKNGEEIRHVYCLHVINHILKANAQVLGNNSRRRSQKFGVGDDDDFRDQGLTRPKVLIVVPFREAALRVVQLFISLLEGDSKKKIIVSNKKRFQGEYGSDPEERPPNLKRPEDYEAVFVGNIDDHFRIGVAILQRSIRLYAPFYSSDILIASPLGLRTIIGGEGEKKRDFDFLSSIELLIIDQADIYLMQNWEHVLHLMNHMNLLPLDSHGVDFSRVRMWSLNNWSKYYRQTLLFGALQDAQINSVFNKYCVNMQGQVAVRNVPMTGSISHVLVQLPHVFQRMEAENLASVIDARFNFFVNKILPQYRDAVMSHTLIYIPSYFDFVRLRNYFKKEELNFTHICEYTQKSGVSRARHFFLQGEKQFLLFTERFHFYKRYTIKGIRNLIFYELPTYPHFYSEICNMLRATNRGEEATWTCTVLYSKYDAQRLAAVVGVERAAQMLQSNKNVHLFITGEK

Columns and labels:
Test in all cases: log2 fold change, soluble protein after heating vs DMSO (PISA); higher = thermal stabilisation; K562 cells, 10 uM, 30 min; active = over 0.2 and 3.5 SD of the protein, either way, in both replicates (recomputed)
[1] = compound: C[C@@H](Oc1cc(-c2cnn(C3CCNCC3)c2)cnc1N)c1c(Cl)ccc(F)c1Cl [crizotinib]
How it was run: (§1)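 K562 cells at 2×10^6 cells/mL were treated with 10 μM compound for 30 min. Aliquots were heated for 3 min across 48°C-58°C, pooled, and extracted in PBS with 0.5% NP-40 at 4°C; soluble protein was the supernatant after 21,000xg for 90 min. Soluble protein was quantified by TMTpro 16plex LC-MS/MS with channel sums equalised, and reported as log2 fold change in thermal stability against DMSO controls, with values from duplicates.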

[2] = compound: C[C@@H]1COCCN1C2=NC(=NC(=C2)C3(CC3)S(=O)(=O)C)C4=C5C=CNC5=CC=C4
How it was run: as §1

[3] = compound: C[C@H](C1=CC=C(C=C1)C(=O)NC2=C3C=CNC3=NC=C2)N
How it was run: as §1

[4] = compound: Cc1cc(Nc2cc(CN3CCOCC3)c3nc(C)c(Cc4ccc(Cl)cc4F)n3n2)n[nH]1 [gandotinib]
How it was run: as §1

[5] = compound: Cc1ccc(C(=O)N(CCCN)[C@@H](c2nc3cc(Cl)ccc3c(=O)n2Cc2ccccc2)C(C)C)cc1 [ispinesib]
How it was run: as §1

[6] = compound: Cc1cccc(CC(=O)N2CCc3c2ccc(-c2cn(C)c4ncnc(N)c24)c3F)n1
How it was run: as §1

[7] = compound: Cn1cc(-c2ccc3c(c2)CCN3C(=O)Cc2cccc(C(F)(F)F)c2)c2c(N)ncnc21
How it was run: as §1

[8] = compound: Cn1cc(-c2ccc3nnc(C(F)(F)c4ccc5ncccc5c4)n3n2)cn1
How it was run: as §1

[9] = compound: CS(=O)(=O)c1ccc(-c2cnc(N)c(C(=O)Nc3ccccc3)n2)cc1
How it was run: as §1

[10] = compound: Cc1ccc(NC(=O)c2ccc(CN3CC[C@H](N(C)C)C3)c(C(F)(F)F)c2)cc1Nc1nccc(-c2cncnc2)n1 [bafetinib]
How it was run: as §1

[11] = compound: Cc1cn(-c2cc(NC(=O)c3ccc(C)c(Nc4nccc(-c5cccnc5)n4)c3)cc(C(F)(F)F)c2)cn1 [nilotinib]
How it was run: as §1

[12] = compound: Cc1nc(Nc2n[nH]c3c2CN(C(=O)N[C@H](CN(C)C)c2ccccc2)C3(C)C)c2sccc2n1
How it was run: as §1

[13] = compound: Cc1ncc(-c2ccnc(Nc3ccc(S(C)(=O)=O)cc3)n2)n1C(C)C
How it was run: as §1

[14] = compound: FC(F)(F)c1ccc(/C=C/c2nc(COc3ccc(CCCCn4ccnn4)cc3)co2)cc1 [mubritinib]
How it was run: as §1

[15] = compound: Cc1cc(Nc2cc(N3CCN(C)CC3)nc(Sc3ccc(NC(=O)C4CC4)cc3)n2)n[nH]1 [tozasertib]
How it was run: as §1

[16] = compound: Cc1ccc(-n2nc(C(C)(C)C)cc2NC(=O)Nc2ccc(OCCN3CCOCC3)c3ccccc23)cc1 [doramapimod]
How it was run: as §1

[17] = compound: C[C@H](Nc1ncnc2nc[nH]c12)c1cc2cccc(Cl)c2c(=O)n1-c1ccccc1 [duvelisib]
How it was run: as §1

[18] = compound: Cc1cc(SCc2sc(-c3ccc(C(F)(F)F)cc3)nc2C)ccc1OCC(=O)O
How it was run: as §1

[19] = compound: Cc1nc(Nc2ncc(C(=O)Nc3c(C)cccc3Cl)s2)cc(N2CCN(CCO)CC2)n1 [dasatinib]
How it was run: as §1

[20] = compound: Cn1cncc1[C@@](N)(c1ccc(Cl)cc1)c1ccc2c(c1)c(-c1cccc(Cl)c1)cc(=O)n2C [tipifarnib]
How it was run: as §1

Measured: log2 fold change

DDR1 isoform 5 (UniProt Q08345)
inactive: [1] -0.266 | [2] 0.067 | [3] -0.018 | [4] -0.577 | [5] -0.109 | [6] 0.305 | [7] 0.185 | [8] -0.002

DMBT1 isoform 6 (UniProt Q9UGM3)
inactive: [9] -0.038 | [2] 0.221 | [10] -0.126 | [11] -0.004 | [12] -0.114 | [13] 0.648 | [14] 0.064

DDX55 (UniProt Q8NHQ9)
inactive: [9] 0.088 | [15] -0.12 | [10] 0.025

DHTKD1 (UniProt Q96HY7)
inactive: [1] 0.241 | [2] 0.137 | [15] -0.065 | [16] -0.047 | [10] 0.108

DHX34 (UniProt Q14147)
inactive: [1] 0.032 | [2] -0.233 | [17] -0.019 | [15] 0.006 | [18] 0.078 | [16] 0.046 | [5] -0.16 | [19] -0.357 | [8] -0.122

DDX39B (UniProt H0Y400)
inactive: [2] -0.136

DEGS1 (UniProt O15121)
inactive: [9] 0.064 | [2] 0.062 | [3] -0.047 | [4] 0.138 | [18] -0.078 | [10] -0.032 | [6] -0.029 | [11] 0.04 | [12] -0.021 | [19] -0.1 | [13] -0.031 | [7] -0.07 | [20] -0.026 | [14] 0.087

DEAF1 (UniProt O75398)
inactive: [17] -0.075 | [18] 0.192 | [19] 0.167

DDX11L8 (UniProt A8MPP1)
inactive: [3] -0.268 | [17] -0.069 | [18] -0.145 | [10] -0.031 | [19] 0.106 | [7] -0.014 | [20] -0.007

DENND10 (UniProt Q8TCE6)
inactive: [9] 0.046 | [3] -0.015 | [18] 0.03 | [5] -0.021 | [10] 0.033 | [11] -0.266 | [12] -0.032 | [19] -0.129 | [13] -0.353 | [7] -0.131 | [8] -0.064 | [20] 0.034 | [14] 0.077
active: [2] 0.298

4 neighbouring records already listed:
DDX39B (UniProt H0Y400)
inactive: [2] -0.136

DEGS1 (UniProt O15121)
inactive: [9] 0.064 | [2] 0.062 | [3] -0.047 | [4] 0.138 | [18] -0.078 | [10] -0.032 | [6] -0.029 | [11] 0.04 | [12] -0.021 | [19] -0.1 | [13] -0.031 | [7] -0.07 | [20] -0.026 | [14] 0.087

DEAF1 (UniProt O75398)
inactive: [17] -0.075 | [18] 0.192 | [19] 0.167

DDX11L8 (UniProt A8MPP1)
inactive: [3] -0.268 | [17] -0.069 | [18] -0.145 | [10] -0.031 | [19] 0.106 | [7] -0.014 | [20] -0.007

Following part.

DESI1 (UniProt Q6ICB0)
inactive: [3] 0.006 | [17] 0.096 | [15] 0.044 | [18] 0.166 | [10] 0.003 | [19] -0.131 | [7] -0.049 | [20] -0.114

DMKN (UniProt Q6E0U4)
inactive: [15] 0.166 | [5] 0.228 | [10] 0.503 | [11] 0 | [12] -0.01 | [13] -0.086 | [8] 0.294 | [20] 0.088 | [14] 0.089

DGKA (UniProt P23743)
inactive: [9] 0.339 | [2] 0.094 | [17] 0.226 | [18] -0.171 | [5] 0.111 | [10] -0.265 | [19] 0.151 | [8] -0.415 | [20] -0.168 | [14] -0.005

DDX46, A0A0C4DG89
inactive: [2] -0.009 | [11] 0.151 | [12] -0.322 | [13] 0.032 | [14] 0.242

DDX25 (UniProt Q9UHL0)
inactive: [1] 0.011 | [3] -0.183 | [17] -0.092 | [15] 0.063 | [18] 0.008 | [16] -0.061 | [10] -0.071 | [11] -0.019 | [12] -0.143 | [19] -0.128 | [13] 0.036 | [7] 0.185 | [20] -0.103 | [14] 0.023

DEF8 (UniProt Q6ZN54)
inactive: [10] 0.033 | [20] 0.045

DIEXF (UniProt Q68CQ4)
inactive: [3] 0.289 | [17] 0.012 | [18] 0.258 | [19] -0.386 | [7] -0.204

DDAH1 (UniProt O94760)
inactive: [3] -0.153 | [17] 0.071 | [4] -0.031 | [15] 0.23 | [18] -0.039 | [10] 0 | [6] 0.073 | [11] -0.057 | [12] 0.018 | [19] 0.047 | [13] -0.044 | [7] 0.125 | [20] -0.092 | [14] 0.065
